Counter-ions that a name gives are not always drawn. The list shows a part of the results. Small differences around the control level are noise.
What was measured:
Conditions in all cases: 5 µM; treatment: days 7-14 after plating, readout day 21
[1] = test system: hPSC-derived cortical neurons (WA09); experiment: nucleus area z-score vs screen plate; higher = larger nuclei (more mature)
[2] = test system: hPSC-derived cortical neurons (WA09); experiment: total neurite length per nucleus (MAP2) z-score; higher = more neurite growth
[3] = test system: hPSC-derived cortical neurons (WA09); experiment: nucleus roundness z-score vs screen plate; higher = rounder nuclei (more mature)
[4] = test system: hPSC-derived cortical neurons (WA09); experiment: KCl-induced FOS+/EGR-1+ double-positive nuclei fraction z-score (KCl minus unstimulated); higher = stronger activity-induced IEG response

| SMILES | nucleus area z-score [1] | total neurite length per nucleus (z-score) [2] | nucleus roundness z-score [3] | KCl-induced FOS+/EGR-1+ double-positive nuclei fraction z-score [4] |
| --- | --- | --- | --- | --- |
| CC(C)(C)C(=O)OCOP(=O)(COCCn1cnc2c(N)ncnc21)OCOC(=O)C(C)(C)C [Adefovir Dipivoxil] | -13.2 | -3.81 | -6.98 | -1.01 |
| CN(C)CCCN1c2ccccc2CCc2ccc(Cl)cc21 [Clomipramine HCl] | -0.122 | -2.65 | -1.42 | -0.479 |
| CC(=O)N1c2ccc(-c3ccc(C(=O)O)cc3)cc2[C@H](Nc2ccc(Cl)cc2)C[C@@H]1C | -3.62 | -1.74 | -5.19 | 0.0323 |
| Nc1ccc(-c2ccc3ncc4ccc(=O)n(-c5cccc(C(F)(F)F)c5)c4c3c2)cn1 [Torin 2] | -5.1 | -2.56 | -0.554 | -0.902 |
| C[C@H]1O[C@H](O[C@H]2[C@H](O)[C@@H](O)[C@@H](O[C@H]3[C@H](O)[C@@H](O)C(O)O[C@@H]3CO)O[C@@H]2CO)[C@H](O)[C@@H](O)[C@@H]1N[C@H]1C=C(CO)[C@@H](O)[C@H](O)[C@H]1O (some centres undefined) [Acarbose] | -0.246 | -0.432 | -0.0806 | 0.695 |
| Cc1c(CN2CCN(C(=O)[C@H](C)O)CC2)sc2c(N3CCOCC3)nc(-c3cnc(N)nc3)nc12 | -6.9 | -2.89 | -1.97 | -0.508 |
| CCC1(c2c[nH]cn2)Cc2ccccc2C1 [Atipamezole hydrochloride] | -2.73 | -0.754 | -2.6 | -1.48 |
| CCCCNc1cc(C(=O)O)cc(S(N)(=O)=O)c1Oc1ccccc1 [Bumetanide] | 0.105 | 0.503 | 0.883 | 1.8 |
| CCCN(CCC)S(=O)(=O)c1ccc(C(=O)O)cc1 [Probenecid] | -0.0528 | 0.339 | -0.317 | 0.815 |
| COc1ccc(C(=O)c2ccccc2)c(O)c1 [Oxybenzone] | 0.162 | 0.257 | -0.331 | 1.59 |
| CCN(c1cc(-c2ccc(CN3CCOCC3)cc2)cc(C(=O)NCc2c(C)cc(C)[nH]c2=O)c1C)C1CCOCC1 | 0.649 | -0.209 | 0.206 | 0.873 |
| O=C(Nc1ccccc1-c1cn2c(CN3CCNCC3)csc2n1)c1cnc2ccccc2n1 | -6.02 | -2.16 | -1.83 | 0.397 |
| COc1ccc(/C=C/C(=O)C2(C(=O)/C=C/c3ccc(OC)c(OC)c3)CCCCC2)cc1OC | -0.341 | 1.35 | 0.2 | 0.391 |
| CN(C)Cc1ccc(S(=O)(=O)n2ccc(/C=C/C(=O)NO)c2)cc1 [Resminostat] | -0.866 | 0.146 | 0.628 | 0.172 |
| Cc1cn2cc(C(=O)N(C)CCO)cc(N[C@@H]3CCOc4cccc(C)c43)c2n1 | -0.455 | -0.0686 | -0.258 | 3.27 |
| COc1c(N2C[C@@H]3CCCN[C@@H]3C2)c(F)cc2c(=O)c(C(=O)O)cn(C3CC3)c12 [Moxifloxacin HCl] | -0.156 | -0.0834 | 0.518 | 1.19 |
| COc1ccc2[nH]c([S@@+]([O-])Cc3ncc(C)c(OC)c3C)nc2c1 [Esomeprazole Magnesium] | -0.676 | 1.37 | 1.02 | 0.982 |
| CC(C)NCC(O)COc1ccc(CCOCC2CC2)cc1 (centres undefined) [Betaxolol HCl] | 0.0484 | 0.802 | 0.169 | 2.16 |

2 of the compounds above, as tab-separated lines.
SMILES	nucleus area z-score [1]	total neurite length per nucleus (z-score) [2]	nucleus roundness z-score [3]	KCl-induced FOS+/EGR-1+ double-positive nuclei fraction z-score [4]
CC(=O)N1c2ccc(-c3ccc(C(=O)O)cc3)cc2[C@H](Nc2ccc(Cl)cc2)C[C@@H]1C	-3.62	-1.74	-5.19	0.0323
O=C(Nc1ccccc1-c1cn2c(CN3CCNCC3)csc2n1)c1cnc2ccccc2n1	-6.02	-2.16	-1.83	0.397

The list continues.

| SMILES | nucleus area z-score [1] | total neurite length per nucleus (z-score) [2] | nucleus roundness z-score [3] | KCl-induced FOS+/EGR-1+ double-positive nuclei fraction z-score [4] |
| --- | --- | --- | --- | --- |
| COc1ccc(CCN(C)CCCC(C#N)(c2ccc(OC)c(OC)c2)C(C)C)cc1OC (centres undefined) [Verapamil HCl] | -0.62 | -1.03 | -0.839 | -0.683 |
| NCCCC[C@H](N[C@@H](CCc1ccccc1)C(=O)O)C(=O)N1CCC[C@H]1C(=O)O [Lisinopril] | -0.1 | 1.04 | 0.855 | -0.333 |
| CN(C)CCCOc1nn(Cc2ccccc2)c2ccccc12 [Benzydamine HCl] | 0.531 | -0.187 | -0.476 | 0.182 |
| CN(CCOc1ccc(CC2SC(=O)NC2=O)cc1)c1ccccn1 (centres undefined) [Rosiglitazone maleate] | 0.288 | -0.314 | -0.667 | 0.0472 |
| CN1CCN(c2ccc3nc(-c4c(N)c5c(F)cccc5[nH]c4=O)[nH]c3c2)CC1 [Dovitinib (TKI258) Lactate] | -13.3 | -4.84 | -11.6 | -0.89 |
| COC(=O)[C@]12CCC(C)(C)C[C@H]1[C@H]1C(=O)C=C3[C@@]4(C)C=C(C#N)C(=O)C(C)(C)[C@@H]4CC[C@@]3(C)[C@]1(C)CC2 [Bardoxolone Methyl] | -17.6 | -6.5 | -15.5 | -2.34 |
| CC#CC(=O)Nc1ccc2ncnc(Nc3cccc(Br)c3)c2c1 | 0.293 | 0.308 | -0.599 | 0.0375 |
| CCCc1cc(C)[nH]c(=O)c1CNC(=O)c1cc(-c2ccc(N3CCN(C(C)C)CC3)nc2)cc2c1cnn2C(C)C | 0.498 | 0.352 | 0.0137 | 0.106 |
| CC(=O)N[C@@H](CS)C(=O)O [Acetylcysteine] | 0.0246 | 0.851 | 0.839 | 0.27 |
| Cc1cc([C@@H](C)Nc2ccccc2C(=O)O)c2nc(N3CCOCC3)cc(=O)n2c1 | -0.146 | -0.311 | -0.0792 | -0.158 |
| COc1ccccc1OCC(O)COC(N)=O (centres undefined) [Methocarbamol] | -0.787 | 0.0292 | 0.0647 | 1.8 |
| CC(C)CC(=O)Nc1n[nH]c2c1CN(C(=O)C1CCN(C)CC1)C2(C)C | -9.71 | -3.11 | -4.35 | -1.09 |
| COc1cc(O)c(CC=C(C)C)c(O)c1C(=O)/C=C/c1ccc(O)cc1 [Xanthohumol] | 1.59 | -0.857 | -1.07 | -0.848 |
| COc1cc(NS(=O)(=O)c2ccc(N)cc2)nc(OC)n1 [Sulphadimethoxine] | -0.018 | 1.25 | 0.667 | 0.343 |
| Cc1ccc2c(c1)C(=O)C1(O)CCN(c3ccccc3)C1=N2 (single isomer, unassigned; (-)) [(-)-Blebbistatin] | 2.9 | -0.94 | -3.15 | -0.474 |
| N#C/C(=C(/N)Sc1ccc(N)cc1)c1ccccc1C(F)(F)F | 2.73 | 0.844 | 0.433 | 0.798 |
| O=C(Nc1cccnc1)c1cc(-c2ccnc(F)c2)ccc1OCc1ccccc1 | 0.848 | 2.79 | 2.98 | 4.48 |
| Cc1nnc(C(C)C)n1C1C[C@H]2CC[C@@H](C1)N2CC[C@H](NC(=O)C1CCC(F)(F)CC1)c1ccccc1 (stereo in doubt) [Maraviroc] | 0.561 | -0.374 | -0.61 | -1.35 |
| C[C@@H]1C[C@H]2[C@@H]3CCC4=CC(=O)C=C[C@]4(C)[C@@]3(F)[C@@H](O)C[C@]2(C)[C@@]1(O)C(=O)COP(=O)(O)O [Dexamethasone Sodium Phosphate] | 0.0488 | 1.39 | 0.457 | -0.159 |

By substructure: those above containing fluorine (seven)

| SMILES | nucleus area z-score [1] | total neurite length per nucleus (z-score) [2] | nucleus roundness z-score [3] | KCl-induced FOS+/EGR-1+ double-positive nuclei fraction z-score [4] |
| --- | --- | --- | --- | --- |
| Nc1ccc(-c2ccc3ncc4ccc(=O)n(-c5cccc(C(F)(F)F)c5)c4c3c2)cn1 [Torin 2] | -5.1 | -2.56 | -0.554 | -0.902 |
| COc1c(N2C[C@@H]3CCCN[C@@H]3C2)c(F)cc2c(=O)c(C(=O)O)cn(C3CC3)c12 [Moxifloxacin HCl] | -0.156 | -0.0834 | 0.518 | 1.19 |
| CN1CCN(c2ccc3nc(-c4c(N)c5c(F)cccc5[nH]c4=O)[nH]c3c2)CC1 [Dovitinib (TKI258) Lactate] | -13.3 | -4.84 | -11.6 | -0.89 |
| N#C/C(=C(/N)Sc1ccc(N)cc1)c1ccccc1C(F)(F)F | 2.73 | 0.844 | 0.433 | 0.798 |
| O=C(Nc1cccnc1)c1cc(-c2ccnc(F)c2)ccc1OCc1ccccc1 | 0.848 | 2.79 | 2.98 | 4.48 |
| Cc1nnc(C(C)C)n1C1C[C@H]2CC[C@@H](C1)N2CC[C@H](NC(=O)C1CCC(F)(F)CC1)c1ccccc1 (stereo in doubt) [Maraviroc] | 0.561 | -0.374 | -0.61 | -1.35 |
| C[C@@H]1C[C@H]2[C@@H]3CCC4=CC(=O)C=C[C@]4(C)[C@@]3(F)[C@@H](O)C[C@]2(C)[C@@]1(O)C(=O)COP(=O)(O)O [Dexamethasone Sodium Phosphate] | 0.0488 | 1.39 | 0.457 | -0.159 |

Going on with the list.

| SMILES | nucleus area z-score [1] | total neurite length per nucleus (z-score) [2] | nucleus roundness z-score [3] | KCl-induced FOS+/EGR-1+ double-positive nuclei fraction z-score [4] |
| --- | --- | --- | --- | --- |
| CC(C)CN(C[C@@H](O)[C@H](Cc1ccccc1)NC(=O)O[C@H]1CCOC1)S(=O)(=O)c1ccc(N)cc1 [Amprenavir] | -0.108 | 1.3 | 0.776 | 1.64 |
| CN1CCC(=C2c3ccccc3CCn3c(C=O)cnc32)CC1 [Alcaftadine] | 1.63 | -1.37 | -0.78 | -0.67 |
| CCc1c2c(nc3ccc(OC(=O)N4CCC(N5CCCCC5)CC4)cc13)-c1cc3c(c(=O)n1C2)COC(=O)[C@]3(O)CC [Irinotecan] | 1.76 | 0.779 | 1.64 | 0.508 |
| COc1cc(OC)c(C(=O)CCCN2CCCC2)c(OC)c1 [Buflomedil HCl] | 1.22 | -0.782 | -0.776 | -0.0894 |
| Cc1cc2c(s1)Nc1ccccc1N=C2N1CCN(C)CC1 [Olanzapine] | -0.0934 | -0.395 | 0.108 | 0.209 |
| COc1cc2ncnc(Nc3ccc(O)c(Br)c3)c2cc1OC | 1.98 | 0.442 | -0.537 | 0.77 |
| CC(C=CC1(O)C(C)=CC(=O)CC1(C)C)=CC(=O)O (centres undefined) [Abscisic Acid (Dormin_] | 1.2 | 0.633 | 0.484 | -0.518 |
| CCC(C)(Oc1ccc(C2(c3ccc(OC(C)(CC)C(=O)O)cc3)CCCCC2)cc1)C(=O)O (centres undefined) [Clinofibrate] | 0.201 | 0.888 | 1.12 | 0.37 |
| Cn1cnc(N)c2ncnc1-2 [3-Methyladenine] | 0.0104 | 1.75 | 0.341 | 0.628 |
| Nc1nccc(Oc2ccc(NC(=O)c3c[nH]cc(-c4ccc(F)cc4)c3=O)cc2F)c1Cl | 1.97 | -1.1 | -0.644 | -0.687 |
| COC(=O)C1=C(C)NC(C)=C(C(=O)OC(C)(C)CN(C)CCC(c2ccccc2)c2ccccc2)C1c1cccc([N+](=O)[O-])c1 (centres undefined) [Lercanidipine hydrochloride] | -16.4 | -6.4 | -10.2 | -1.4 |
| FC(F)(F)c1ccc(/C=C/c2nc(COc3ccc(CCCCn4ccnn4)cc3)co2)cc1 [Mubritinib (TAK 165)] | -0.373 | -0.118 | 0.207 | -1.35 |
| OC[C@@H](O)[C@@H](O)[C@@H](O)CO [Ribitol] | -0.199 | 0.293 | 0.143 | 0.103 |
| O=C(/C=C\n1cnc(-c2cc(C(F)(F)F)cc(C(F)(F)F)c2)n1)NNc1cnccn1 | -6.51 | -0.348 | -2.07 | -0.342 |
| CCOc1ccccc1OC(c1ccccc1)C1CNCCO1 (centres undefined) [Reboxetine mesylate] | -0.00458 | -0.167 | 1.18 | 0.58 |
| CCC(=O)OCC(=O)[C@@]1(OC(=O)CC)[C@@H](C)C[C@H]2[C@@H]3CCC4=CC(=O)C=C[C@]4(C)[C@@]3(F)[C@@H](O)C[C@@]21C [Betamethasone Dipropionate] | 0.748 | -0.537 | -0.0856 | -0.505 |
| O=c1[nH]cnc2[nH]ncc12 [Allopurinol Sodium] | 1.97 | -1.28 | -1.05 | 1.8 |
| COc1ccc(COc2cc3oc(=O)c4cc(C(C)O)ccc4c3cc2OC)cc1 (centres undefined) [Palomid 529 (P529)] | 1.13 | -0.83 | -0.249 | 0.0311 |

From the supplement of paper PMC11348887
